These are yes or no findings as the source states them, for the method shown. In cells and extracts the contact can be indirect. A yes stands for co-enrichment or nearness to the bait. Other partners may have been found. For part of these data: No binding means not detected with the bait. For part of these data: Tags and fused reporters may be left off the sequences shown.
T1: Hexa-His-tagged PpiC (wild type) (E. coli, UniProt P0A9L5 1-93)
T1 construct: PpiC, parvulin peptidyl-prolyl cis/trans isomerase, E. coli; coding region of the ppiC gene in pET24b; The tag is called cleavable; also called wt PpiC; wild-type PpiC; source: E. coli T7 express derivative lacking all six PPIs (SR21984), IPTG-induced; in lysate on Ni-NTA for co-elution; purified (Ni-NTA) for ITC; not shown: His6, C-terminal, kept
T1 sequence (looked up): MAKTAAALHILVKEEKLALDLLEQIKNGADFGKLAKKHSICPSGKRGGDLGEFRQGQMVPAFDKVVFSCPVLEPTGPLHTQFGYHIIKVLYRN

T2: Hexa-His-tagged FkpB E86A (E. coli) (UniProt P0AEM0)
T2 sequence: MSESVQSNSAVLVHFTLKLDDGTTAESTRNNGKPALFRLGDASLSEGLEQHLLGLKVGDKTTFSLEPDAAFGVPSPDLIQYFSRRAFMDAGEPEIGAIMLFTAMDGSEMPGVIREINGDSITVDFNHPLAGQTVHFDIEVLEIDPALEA

T3: Hexa-His-tagged FkpB (wild type) (E. coli) (UniProt P0AEM0)
T3 sequence: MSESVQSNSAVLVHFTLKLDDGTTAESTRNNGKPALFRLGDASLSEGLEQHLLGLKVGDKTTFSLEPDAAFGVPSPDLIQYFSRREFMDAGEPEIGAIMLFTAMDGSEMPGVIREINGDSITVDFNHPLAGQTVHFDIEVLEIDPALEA

T4: Hexa-His-tagged FkpB P128A (E. coli) (UniProt P0AEM0)
T4 sequence: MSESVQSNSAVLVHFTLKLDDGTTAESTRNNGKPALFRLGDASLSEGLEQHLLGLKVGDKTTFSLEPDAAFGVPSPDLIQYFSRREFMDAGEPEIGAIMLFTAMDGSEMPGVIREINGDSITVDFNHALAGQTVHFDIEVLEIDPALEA

T5: Hexa-His-tagged FklB (wild type) (E. coli) (UniProt P0A9L3)
T5 sequence: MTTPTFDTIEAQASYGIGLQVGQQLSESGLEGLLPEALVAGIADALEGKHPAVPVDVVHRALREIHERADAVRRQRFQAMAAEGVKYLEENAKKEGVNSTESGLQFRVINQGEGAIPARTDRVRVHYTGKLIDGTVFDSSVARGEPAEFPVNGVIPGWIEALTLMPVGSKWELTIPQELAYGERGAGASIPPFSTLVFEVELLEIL


Tests used:
Test in all cases: affinity purification with mass spectrometry; His6-tagged PPI induced with 0.1 mM IPTG in an E. coli T7 express derivative lacking all six PPIs (SR21984); soluble lysate on Ni-NTA beads, 50 mM NaH2PO4, 300 mM NaCl, eluted with a linear imidazole gradient (50-500 mM); co-eluting proteins resolved by SDS-PAGE (for FkpB also 2D gels) and identified by MALDI-TOF
[1] = molecular target: T1, Hexa-His-tagged PpiC (wild type)
[2] = molecular target: T2, Hexa-His-tagged FkpB E86A (E. coli)
[3] = molecular target: T3, Hexa-His-tagged FkpB (wild type) (E. coli)
[4] = molecular target: Hexa-His-tagged FkpB N126A H127A double mutant (E. coli) (UniProt P0AEM0)
[5] = molecular target: Hexa-His-tagged FkpB N126A (E. coli) (UniProt P0AEM0)
[6] = molecular target: T4, Hexa-His-tagged FkpB P128A (E. coli)
[7] = molecular target: T5, Hexa-His-tagged FklB (wild type) (E. coli)
[8] = molecular target: Hexa-His-tagged PpiC M57A (E. coli)

Binder | binding [1] | binding [2] | binding [3] | binding [4] | binding [5] | binding [6] | binding [7] | binding [8]
RNA chaperone ProQ (protein, UniProt P45577 1-232) MENQPKLNSSKEVIAFLAERFPHCFSAEGEARPLKIGIFQDLVDRVAGEMNLSKTQLRSALRLYTSSWRYLYGVKPGATRVDLDGNPCGELDEQHVEHARKQLEEAKARVQAQRAEQQAKKREAAATAGEKEDAPRRERKPRPTTPRRKEGAERKPRAQKPVEKAPKTVKAPREEQHTPVSDISALTVGQALKVKAGQNAMDATVLEITKDGVRVQLNSGMSLIVRAEHLVF | binds | binds | binds | – | – | – | – | –
LptB (cytoplasmic ATPase component of LPS ABC transport complex) (protein, UniProt P0A9V1 1-241) MATLTAKNLAKAYKGRRVVEDVSLTVNSGEIVGLLGPNGAGKTTTFYMVVGIVPRDAGNIIIDDDDISLLPLHARARRGIGYLPQEASIFRRLSVYDNLMAVLQIRDDLSAEQREDRANELMEEFHIEHLRDSMGQSLSGGERRRVEIARALAANPKFILLDEPFAGVDPISVIDIKRIIEHLRDSGLGVLITDHNVRETLAVCERAYIVSQGHLIAHGTPTEILQDEHVKRVYLGEDFRL | binds | binds | binds | – | – | – | binds | –

The next lines start with the values.

binding [1] | binding [2] | binding [3] | binding [4] | binding [5] | binding [6] | binding [7] | binding [8] | Binder
– | binds | binds | no binding | binds | binds | binds | – | RpoE (envelope stress response regulator sigma E) (protein, UniProt P0AGB6 1-191) MSEQLTDQVLVERVQKGDQKAFNLLVVRYQHKVASLVSRYVPSGDVPDVVQEAFIKAYRALDSFRGDSAFYTWLYRIAVNTAKNYLVAQGRRPPSSDVDAIEAENFESGGALKEISNPENLMLSEELRQIVFRTIESLPEDLRMAITLRELDGLSYEEIAAIMDCPVGTVRSRIFRAREAIDNKVQPLIRR
binds | – | – | – | – | – | – | no binding | YrdA (protein, UniProt P0A9W9 1-184) MSDVLRPYRDLFPQIGQRVMIDDSSVVIGDVRLADDVGIWPLVVIRGDVHYVQIGARTNIQDGSMLHVTHKSSYNPDGNPLTIGEDVTVGHKVMLHGCTIGNRVLVGMGSILLDGAIVEDDVMIGAGSLVPQNKRLESGYLYLGSPVKQIRPLSDEEKAGLRYSANNYVKWKDEYLDQGNQTQP
